Test [1] addresses glutathione S-transferase (GST)-HmtA chimeric construct, biotinylated in vivo (Methanobrevibacter smithii). Put plainly: ELISA (figure legend). A general note: ELISA stands for enzyme-linked immunosorbent assay.
The target is the same in test [2]. Put plainly: ELISA, biotinylated GST-HmtA immobilised on coated plates.

These are yes or no findings as the source states them, for the method shown. Some entries that bind do so weakly or less than the wild type.

B1: scFv of monoclonal antibody mAb4 (N-VH-linker-VL-C) (scFv)
scFv: EVQLVESGGGLVQPGGSLRLSCAASGFTFSSYSMNWVRQAPGKGLEWVSYISSSSSTIYYADSVKGRFTISRDNAKNSLYLQMNSLRAEDTAVYYCARDFPNTEAFDIWGQGTLVTVSSGGGGSGGGGSGGGGSTQSALTQPASVSGSPGQSITISCTGTSSDVGGYNYVSWYQQHPGKAPKLMIYEVSNRPSGVSNRFSGSKSGNTASLTISGLQAEDEADYYCSSYDVFGGGTKLTVLG
Consider B1, for which the binding entry in test [1] and in test [2] was “binds” throughout.

The values above are taken from US20250180556A1.
